Results deposited as PubChem BioAssay AID504808 (Drosophila RNAi Screening Center, 2011).
In all, the deposit lists about 21,000 reagents; shown is an unselected part of those with a known target gene and a result. In the full data, 18 (0.084%) are marked active. 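Raw counts without plate normalisation, one of two replicates; the ratio scores behind the calls were not deposited.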 Names joined by + are all predicted targets of the reagent. Not given: the amount of reagent, the time to read-out.

- Test: 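Chromatin factors that keep E2F targets switched off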 (primary screen)
- Cells: Drosophila S2 cells
- Reagent: long dsRNA against Drosophila genes
- Detection: 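Firefly luciferase driven by E2F sites, normalised to Renilla luciferase on the same minimal promoter, measured by plate reader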
- Direction: E2F firefly: higher = more E2F reporter activity; Renilla normaliser: higher = more normaliser reporter signal
- Hit rule: 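Called active if the normalised E2F reporter went up by over 50%; the cutoff is arbitrary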

gene knocked down | PubChem SID | E2F firefly, rep 1 | Renilla normaliser, rep 1 | Outcome
retm (GeneID 33899) | SID104183044 | 94618 | 4121 | inactive
jtb (GeneID 36838) | SID104186660 | 1.45e5 | 4986 | inactive
Mi-2 + Su(Tpl) | SID104189432 | 86765 | 3918 | inactive
Nadk2 (GeneID 35918) | SID104186864 | 3101 | 202 | inactive
CG31093 (GeneID 43116) | SID104195481 | 1.08e5 | 5862 | inactive
Dip-B (GeneID 48450) | SID104196258 | 69263 | 3134 | inactive
ogre (GeneID 45382) | SID104198601 | 7972 | 676 | inactive
Lip1 (GeneID 43973) | SID104183156 | 1.49e5 | 5575 | inactive
CG31606 (GeneID 318842) | SID104180804 | 1.25e5 | 6248 | inactive
CG15605 (GeneID 36933) | SID104186350 | 1.65e5 | 5386 | inactive
ATPsynB (GeneID 39143) | SID104189451 | 70689 | 3390 | inactive
Ugt37A3 (GeneID 41574) | SID104195729 | 1.27e5 | 5661 | inactive
CG8152 (GeneID 36696) | SID104186875 | 1.02e5 | 3585 | inactive
CG13721 (GeneID 38556) | SID104188122 | 89152 | 3439 | inactive
se (GeneID 38973) | SID104190505 | 97942 | 4093 | inactive
CG1894 (GeneID 43378) | SID104195188 | 1.32e5 | 6456 | inactive
arx (GeneID 40061) | SID104190178 | 65812 | 3696 | inactive
CG11723 (GeneID 33388) | SID104180116 | 1.05e5 | 3733 | inactive
Orct (GeneID 42891) | SID104196569 | 73255 | 3803 | inactive
CG13984 (GeneID 33879) | SID104182108 | 1.49e5 | 4733 | inactive
CG12111 (GeneID 31796) | SID104197600 | 1.22e5 | 5526 | inactive
Etfb (GeneID 43515) | SID104196116 | 1560 | 984 | inactive
CG12231 (GeneID 32942) | SID104199237 | 1.38e5 | 6697 | inactive
CG11438 (GeneID 40469) | SID104191452 | 1.34e5 | 6882 | inactive
CG5521 (GeneID 43242) | SID104195620 | 1.17e5 | 5890 | inactive
CG32832 (GeneID 318237) | SID104181354 | 1.44e5 | 6081 | inactive
phyl (GeneID 36606) | SID104187455 | 94153 | 3861 | inactive
COX5A (GeneID 41432) | SID104196403 | 1.46e5 | 6142 | inactive
SREBP (GeneID 40155) | SID104190974 | 1.29e5 | 8095 | inactive
CG14017 (GeneID 33787) | SID104182140 | 1.36e5 | 4702 | inactive
CG46301 (GeneID 34829) | SID104181708 | 96100 | 4181 | inactive
eIF4E4 (GeneID 38743) | SID104189493 | 1.07e5 | 3692 | inactive
Ran (GeneID 44072) | SID104200156 | 50890 | 4732 | inactive
CG42594 (GeneID 8674091) | SID104197845 | 56127 | 4107 | inactive
CG42594 (GeneID 8674091) | SID104198200 | 1.21e5 | 6012 | inactive
cmet (GeneID 53561) | SID104183303 | 1.52e5 | 4646 | inactive
mub (GeneID 40436) | SID104191688 | 82112 | 3426 | inactive
Ccp84Ag (GeneID 40819) | SID104192384 | 1.48e5 | 7018 | inactive
Cpr30F (GeneID 318997) | SID104182700 | 79525 | 3993 | inactive
tadr (GeneID 35370) | SID104182969 | 83689 | 2950 | inactive
lap (GeneID 40863) | SID104192420 | 69506 | 3681 | inactive
CG14100 (GeneID 40132) | SID104189893 | 1.35e5 | 6737 | inactive
CG8665 (GeneID 35407) | SID104182890 | 93226 | 3686 | inactive
Cp36 (GeneID 31787) | SID104198244 | 45441 | 4018 | inactive
Mob4 (GeneID 35576) | SID104184785 | 94592 | 3871 | inactive
CG7091 (GeneID 41590) | SID104192736 | 73767 | 2315 | inactive
CG7091 (GeneID 41590) | SID104195989 | 1.12e5 | 5477 | inactive
dmrt93B (GeneID 42494) | SID104195657 | 1.56e5 | 7413 | inactive
CG6179 (GeneID 32819) | SID104199765 | 1.49e5 | 6001 | inactive
CG13994 (GeneID 33853) | SID104182118 | 1.40e5 | 5099 | inactive
ATbp (GeneID 5740592) | SID104200698 | 1.41e5 | 5997 | inactive
Fmo-1 (GeneID 37814) | SID104184120 | 83108 | 3073 | inactive
CG5937 (GeneID 31537) | SID104198184 | 1.03e5 | 4342 | inactive
emb (GeneID 34167) | SID104183320 | 83879 | 3350 | inactive
CG6231 (GeneID 42339) | SID104195789 | 1.61e5 | 7695 | inactive
CG9426 (GeneID 34719) | SID104183011 | 90376 | 4279 | inactive
Cbp53E (GeneID 36905) | SID104187148 | 78900 | 3703 | inactive

Laid out differently: 8 of the entries above
{"gene knocked down":"CG13721 (GeneID 38556)","PubChem SID":"SID104188122","E2F firefly, rep 1":89152,"Renilla normaliser, rep 1":3439,"Outcome":"inactive"}
{"gene knocked down":"se (GeneID 38973)","PubChem SID":"SID104190505","E2F firefly, rep 1":97942,"Renilla normaliser, rep 1":4093,"Outcome":"inactive"}
{"gene knocked down":"CG1894 (GeneID 43378)","PubChem SID":"SID104195188","E2F firefly, rep 1":1.32e5,"Renilla normaliser, rep 1":6456,"Outcome":"inactive"}
{"gene knocked down":"arx (GeneID 40061)","PubChem SID":"SID104190178","E2F firefly, rep 1":65812,"Renilla normaliser, rep 1":3696,"Outcome":"inactive"}
{"gene knocked down":"CG11723 (GeneID 33388)","PubChem SID":"SID104180116","E2F firefly, rep 1":1.05e5,"Renilla normaliser, rep 1":3733,"Outcome":"inactive"}
{"gene knocked down":"Orct (GeneID 42891)","PubChem SID":"SID104196569","E2F firefly, rep 1":73255,"Renilla normaliser, rep 1":3803,"Outcome":"inactive"}
{"gene knocked down":"CG13984 (GeneID 33879)","PubChem SID":"SID104182108","E2F firefly, rep 1":1.49e5,"Renilla normaliser, rep 1":4733,"Outcome":"inactive"}
{"gene knocked down":"CG12111 (GeneID 31796)","PubChem SID":"SID104197600","E2F firefly, rep 1":1.22e5,"Renilla normaliser, rep 1":5526,"Outcome":"inactive"}
